By UniProt entry, the sequences of proteins in these tests, tags left out. Residues count along the entry.
UniProt P12822, 34-1310 limits assumed: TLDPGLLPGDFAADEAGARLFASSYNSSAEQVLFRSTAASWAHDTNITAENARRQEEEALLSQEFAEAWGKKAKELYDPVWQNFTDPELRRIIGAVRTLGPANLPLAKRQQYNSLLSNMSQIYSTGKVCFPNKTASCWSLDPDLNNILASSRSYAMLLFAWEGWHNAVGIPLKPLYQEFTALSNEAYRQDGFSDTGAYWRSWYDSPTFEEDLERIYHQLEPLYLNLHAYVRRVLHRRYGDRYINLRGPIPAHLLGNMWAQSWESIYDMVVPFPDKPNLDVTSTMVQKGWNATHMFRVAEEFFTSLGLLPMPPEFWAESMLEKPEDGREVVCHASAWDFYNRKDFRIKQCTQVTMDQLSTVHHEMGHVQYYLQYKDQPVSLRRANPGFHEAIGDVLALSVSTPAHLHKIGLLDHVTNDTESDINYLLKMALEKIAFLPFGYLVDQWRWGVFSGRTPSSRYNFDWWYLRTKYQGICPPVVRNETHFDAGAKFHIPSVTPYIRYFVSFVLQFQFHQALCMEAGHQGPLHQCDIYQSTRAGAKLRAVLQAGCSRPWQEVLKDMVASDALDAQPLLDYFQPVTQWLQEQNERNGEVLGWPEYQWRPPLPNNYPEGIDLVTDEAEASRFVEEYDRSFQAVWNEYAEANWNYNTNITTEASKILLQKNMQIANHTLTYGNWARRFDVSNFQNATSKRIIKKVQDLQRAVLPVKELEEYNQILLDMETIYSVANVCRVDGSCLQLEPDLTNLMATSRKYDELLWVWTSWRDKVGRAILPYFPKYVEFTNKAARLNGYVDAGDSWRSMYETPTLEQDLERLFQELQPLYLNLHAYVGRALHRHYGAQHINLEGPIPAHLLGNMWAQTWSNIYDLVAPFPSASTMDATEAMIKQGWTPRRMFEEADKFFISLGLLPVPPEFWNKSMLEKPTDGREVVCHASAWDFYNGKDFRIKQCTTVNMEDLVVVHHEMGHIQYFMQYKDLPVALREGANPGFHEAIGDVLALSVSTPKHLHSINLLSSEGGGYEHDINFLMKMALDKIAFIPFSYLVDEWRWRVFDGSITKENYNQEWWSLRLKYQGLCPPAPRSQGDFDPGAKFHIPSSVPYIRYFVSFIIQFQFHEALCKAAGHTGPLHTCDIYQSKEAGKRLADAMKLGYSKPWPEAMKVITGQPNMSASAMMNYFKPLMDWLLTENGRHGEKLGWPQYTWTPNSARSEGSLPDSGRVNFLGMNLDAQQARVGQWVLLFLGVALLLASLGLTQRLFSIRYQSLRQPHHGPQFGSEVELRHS

According to patent publication EP0072352B1, “Benzazepin-2-ones, process for their preparation, pharmaceutical preparations containing these compounds and the compounds for therapeutical use” (CIBA-GEIGY AG, priority 1981, dated 1983):

Assays:
[1] = tested on: durch Angiotensin I (AI) hervorgerufene Blutdrucksteigerung; assay: Inhibition of the angiotensin I (AI) induced blood pressure rise after intravenous administration of the test compound; details: i.v. Dosis 0.1 mg/kg; rat; mean inhibition within 30 min after administration; tested form: HCl
Text: Die Verbindungen der Erfindung zeigen nach intravenöser oder oraler Verabreichung eine hemmende Wirkung gegen die durch Angiotensin I hervorgerufene Blutdrucksteigerung auch an normotensiven Ratten. Das Angiotensin 1 wird durch das genannte Umwandlungsenzym zu der stark blutdrucksteigernden Substanz Angiotensin II hydrolysiert. Die Hemmung des genannten Enzyms blockiert die Bildung von Angiotensin II aus Angiotensin I. In dieser Weise wird die durch Angiotensin I provozierte Blutdrucksteigerung abgeschwächt.
Der entsprechende in-vivo-Test mit den intravenös verabreichten Verbindungen wird mit männlichen normotensiven Ratten, welche mit dem Natriumsalz der 5-Äthyl-5-(1-methylpropyl)-2-thiobarbitursäure narkotisiert sind, durchgeführt. Eine femorale Arterie und eine Wadenvene werden mit je einer Hohlnadel für die direkte Messung des Blutdrucks und für die intravenöse Verabreichung des Angiotensins I und einer erfindungsgemäßen Verbindung versehen. Nach der Stabilisierung des basalen Blutdrucks wird die Druckänderung nach drei, in 5-minütigen Intervallen, i. v. durchgeführten Reizungen mit 333 ng/kg Angiotensin I bestimmt. Solche Druckänderungen werden wieder nach 5,10,15, 30 und 60 Minuten nach intravenöser Verabreichung der zu prüfenden Verbindung bestimmt. Die letztgenannten Druckänderungen werden mit den Anfangswerten verglichen. […]

[2] = molecular target: Angiotensin-umwandelnde Enzym (ACE) (Oryctolagus cuniculus, UniProt P12822); assay: In vitro ACE inhibition (ACEI), rabbit lung tissue preparation, hippuryl-histidyl-leucine substrate, method of Cheung and Cushman; details: read-out: In vitro ACEI IC50, 30 min incubation at 37°, tested form: HCl

- IC50 [2]: 100 nM
SMILES: O=C(O)CN1C(=O)[C@@H](N[C@@H](CCc2ccccc2)C(=O)OCc2ccccc2)CCc2ccccc21 (relative stereo)
- % AI Hemmung [1]: 92%

The structures given here were assigned with low confidence; some may be wrong.
